Laboratory results from publication PMC5136554.
These are yes or no findings as the source states them, for the method shown. Binding seen in cells or lysates may run through a third protein. Some entries that bind do so weakly or less than the wild type.

Sequences of proteins named here, by UniProt entry; tags and fusion partners are left off.
UniProt P12956: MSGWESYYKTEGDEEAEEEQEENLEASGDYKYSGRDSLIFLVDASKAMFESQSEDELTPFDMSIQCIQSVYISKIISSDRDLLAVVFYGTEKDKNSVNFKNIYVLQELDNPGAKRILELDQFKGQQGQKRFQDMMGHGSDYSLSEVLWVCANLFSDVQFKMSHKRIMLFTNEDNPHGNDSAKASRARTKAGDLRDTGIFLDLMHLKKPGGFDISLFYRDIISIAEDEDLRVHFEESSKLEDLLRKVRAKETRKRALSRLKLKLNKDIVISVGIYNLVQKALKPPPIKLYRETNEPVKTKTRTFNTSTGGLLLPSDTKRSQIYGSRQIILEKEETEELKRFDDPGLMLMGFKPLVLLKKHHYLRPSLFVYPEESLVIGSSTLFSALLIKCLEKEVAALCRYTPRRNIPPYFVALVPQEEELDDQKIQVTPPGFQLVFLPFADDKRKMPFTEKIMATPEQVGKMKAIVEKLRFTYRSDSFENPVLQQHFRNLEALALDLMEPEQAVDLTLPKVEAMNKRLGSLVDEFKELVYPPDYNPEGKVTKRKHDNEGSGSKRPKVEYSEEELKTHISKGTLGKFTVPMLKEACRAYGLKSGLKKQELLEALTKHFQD
UniProt P09874: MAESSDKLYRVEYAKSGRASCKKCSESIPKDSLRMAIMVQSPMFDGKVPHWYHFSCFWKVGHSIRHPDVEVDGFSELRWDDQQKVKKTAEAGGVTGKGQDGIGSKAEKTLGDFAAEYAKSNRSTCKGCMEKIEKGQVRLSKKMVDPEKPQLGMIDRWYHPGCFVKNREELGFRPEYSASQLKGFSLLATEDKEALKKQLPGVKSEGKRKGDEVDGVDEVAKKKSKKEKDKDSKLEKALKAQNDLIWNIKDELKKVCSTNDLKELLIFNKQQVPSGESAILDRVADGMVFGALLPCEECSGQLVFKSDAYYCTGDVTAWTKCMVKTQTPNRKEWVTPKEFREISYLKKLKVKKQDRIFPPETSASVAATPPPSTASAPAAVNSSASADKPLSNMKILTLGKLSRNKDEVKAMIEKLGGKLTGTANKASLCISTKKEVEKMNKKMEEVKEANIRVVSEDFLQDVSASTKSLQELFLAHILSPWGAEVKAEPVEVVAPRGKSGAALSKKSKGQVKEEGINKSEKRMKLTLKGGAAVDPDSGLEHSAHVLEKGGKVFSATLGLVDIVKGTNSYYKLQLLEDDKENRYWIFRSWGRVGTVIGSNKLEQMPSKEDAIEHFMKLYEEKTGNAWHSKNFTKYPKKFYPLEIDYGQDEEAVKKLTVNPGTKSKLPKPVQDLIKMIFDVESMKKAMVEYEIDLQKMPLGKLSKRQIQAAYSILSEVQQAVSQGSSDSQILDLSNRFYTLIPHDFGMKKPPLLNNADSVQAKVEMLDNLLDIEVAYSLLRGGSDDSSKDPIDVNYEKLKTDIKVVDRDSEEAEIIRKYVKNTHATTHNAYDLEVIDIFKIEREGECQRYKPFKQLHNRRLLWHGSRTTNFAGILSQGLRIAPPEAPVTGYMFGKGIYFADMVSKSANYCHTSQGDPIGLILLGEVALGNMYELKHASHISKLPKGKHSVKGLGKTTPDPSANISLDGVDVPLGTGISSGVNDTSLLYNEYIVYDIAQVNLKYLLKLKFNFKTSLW

Target: T1, IRF1 (human (endogenous in SK-Hep-1)) (UniProt P10914)
T1 sequence: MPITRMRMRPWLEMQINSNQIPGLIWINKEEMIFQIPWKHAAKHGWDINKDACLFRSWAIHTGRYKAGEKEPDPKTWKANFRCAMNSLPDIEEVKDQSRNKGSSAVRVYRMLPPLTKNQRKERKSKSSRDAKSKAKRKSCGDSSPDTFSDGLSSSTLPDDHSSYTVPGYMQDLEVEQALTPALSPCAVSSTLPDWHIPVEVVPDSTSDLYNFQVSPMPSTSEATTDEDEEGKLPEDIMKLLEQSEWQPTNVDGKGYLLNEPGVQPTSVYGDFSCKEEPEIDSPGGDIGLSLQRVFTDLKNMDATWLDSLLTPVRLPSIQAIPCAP
Assay: co-IP

Substance	binding
Ku70 (from UniProt P12956 1-609)	binds
PARP1 (from UniProt P09874 1-1014)	binds
